According to PubChem BioAssay AID1671190 (National Center for Advancing Translational Sciences (NCATS), 2021):
“And” between values parts separate entries of the source, which are not always exact repeats. Identical values can stand only once. In all, about 580,000 compounds went through this assay and about 6,100 (1.1%) were called active. The shares of active, inactive and inconclusive entries below differ from those in the screen. Calls come from the whole dose curve; as a rule, active = well fitted inhibition curve with a large enough effect; inconclusive = small, poorly fitted or top-dose-only effect, or another doubt; inactive = no such curve, though single readings can be large or run the other way. Where the call is inconclusive, the potency comes from a doubtful curve fit.

Sequences of proteins named here, by UniProt entry; tags and fusion partners are left off. A change or cut given only in a name is not applied to a line headed by its entry.
UniProt P18054: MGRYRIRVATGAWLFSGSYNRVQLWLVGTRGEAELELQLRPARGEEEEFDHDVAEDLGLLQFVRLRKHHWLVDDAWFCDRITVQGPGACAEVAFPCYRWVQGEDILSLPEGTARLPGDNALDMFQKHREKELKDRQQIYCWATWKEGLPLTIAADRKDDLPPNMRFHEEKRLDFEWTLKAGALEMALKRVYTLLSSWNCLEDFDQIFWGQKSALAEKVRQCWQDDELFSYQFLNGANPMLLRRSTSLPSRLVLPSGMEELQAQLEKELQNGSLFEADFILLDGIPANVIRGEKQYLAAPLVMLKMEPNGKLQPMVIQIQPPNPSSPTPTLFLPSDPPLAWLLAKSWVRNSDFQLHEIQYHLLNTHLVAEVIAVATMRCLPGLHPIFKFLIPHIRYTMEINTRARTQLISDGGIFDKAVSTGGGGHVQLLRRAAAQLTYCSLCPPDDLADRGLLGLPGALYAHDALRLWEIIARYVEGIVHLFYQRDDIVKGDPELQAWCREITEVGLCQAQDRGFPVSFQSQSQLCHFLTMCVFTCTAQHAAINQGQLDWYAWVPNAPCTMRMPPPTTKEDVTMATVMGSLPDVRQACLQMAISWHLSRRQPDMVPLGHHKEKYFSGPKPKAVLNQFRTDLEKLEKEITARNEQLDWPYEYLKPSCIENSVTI

These compounds were tested against Polyunsaturated fatty acid lipoxygenase ALOX12 (Homo sapiens) (UniProt P18054) (assay: Primary qHTS assay for inhibitors of human arachidonate 12S-lipoxygenase (ALOX12): Round 2). Conditions: purified 12hLO, xylenol orange hydroperoxide absorbance; activity change, negative = inhibition: at 108 µM (top of the series) unless noted.
In short: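 Hydroperoxide product was detected by ferrous iron/xylenol orange as the 573 to 405 nm absorbance ratio. Arachidonic acid at 40 uM (final) was turned over for 30 min at room temperature by 150 nM human 12hLO, pH 7.0 Hepes buffer, after 15 min compound preincubation.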
% is set by controls: 0 for no effect and ±100 for the full control effect; potency is the fitted concentration of half-maximal effect.

SMILES | activity change, negative = inhibition | Potency
CN(C(=O)C1CCN(S(=O)(=O)c2cccs2)CC1)C1CCCCC1 | inactive: -18% | –
c1ccc(-n2ncc3c2ncn2nc(-c4ccco4)nc32)cc1 | inactive: 4.36% | –
O=C(CCC(=O)c1ccc2c(c1)CCC2)Nc1ccc2c(c1)CCC2 | inactive: 38.5% | –
O=C(CCCn1c(=O)oc2ccccc21)Nc1ccc(-c2nnc3n2CCCCC3)cc1 | – | inconclusive: 50.1 µM [inhibitor, partial curve, poor fit]
CCCC(=O)N1CCCC(c2cc(C(=O)Nc3ccc4c(c3)OCO4)no2)C1 (stereo not drawn) | – | inconclusive: 126 µM [inhibitor, single point]
COc1ccc(NC(=S)NCCc2c[nH]c3ccc(OC)cc23)c(OC)c1 | – | inconclusive: 39.8 µM [inhibitor, partial curve, poor fit]
CCOC(=O)c1nnc(-c2cccs2)nc1NC(C)C | – | inconclusive: 126 µM [inhibitor, partial curve, poor fit]
CCN(CCO)c1nc2sc(C)c(C)c2c2nc(-c3ccccc3)nn12 | – | inconclusive: 14.1 µM [inhibitor, full curve, poor fit]
COc1cc(CN2CCCC23Cc2ccccc2CNC3=O)ccc1F (stereo not drawn) | inactive: 6.05% [at 6.33 µM] | –
Cc1n[nH]c(=O)n1-c1ccc(OCc2ccccc2)cc1 | – | inconclusive: 141 µM [inhibitor, partial curve, poor fit]
Fc1ccc(Nc2nc(N3CCOCC3)c3ccccc3n2)cc1 | – | inconclusive: 63.1 µM [inhibitor, partial curve, poor fit]
O=C(/C=N/O)NCc1cccnc1 | inactive: 10.4% | –
FC(F)Oc1ccc(NC(=S)NC2CCSc3ccccc32)cc1 (stereo not drawn) | – | inconclusive: 39.8 µM [inhibitor, single point]
O=C(Nc1cccc(-c2ccco2)c1)C1CCN(Cc2ccc(CO)o2)CC1 | inactive: -11.5% | –
COc1ccc(-n2c(SCC(=O)Nc3cc(C)on3)nc3ccc(O)cc3c2=O)cc1OC | – | inconclusive: 79.4 µM [inhibitor, partial curve, poor fit]
O=C(CCn1c(=O)[nH]c2ccsc2c1=O)N(CCc1ccccc1)Cc1ccccc1 | inactive: -20.3% | –
CCNC(=S)SCCOc1ccccc1C | – | inconclusive: 70.8 µM [inhibitor, partial curve, poor fit]
O=C(/C=C/c1ccc2c(c1)OCO2)Nc1c(C(=O)O)[nH]c2ccccc12 | – | inconclusive: 50.1 µM [inhibitor, partial curve, poor fit]
CC(C)C[C@@H](NC(=O)[C@@]1(O)C[C@@H](O)[C@H](O)[C@@H](NC(=O)c2cccnc2)C1)C(N)=O | – | inconclusive: 39.8 µM [inhibitor, partial curve, poor fit]
CCc1cc2c(N3CCN(c4ccccc4)CC3)ncnc2s1 | inactive: 27.7% | –
CN(Cc1ccccc1)S(=O)(=O)c1ccc(NC(=S)NC(=O)C2CCCC2)cc1 | – | inconclusive: 7.94 µM [inhibitor, full curve]

SMILES | activity change, negative = inhibition | Potency
O=[N+]([O-])c1ccc2nc(N3CCCC3)sc2c1 | – | inconclusive: 44.7 µM [inhibitor, partial curve, poor fit]
CCc1ccccc1NC(=O)CN1C=C(C(=O)OC)C(C)=NS1(=O)=O | – | inconclusive: 79.4 µM [inhibitor, partial curve]
N#CCC(=O)Nc1ccc(N2CCOCC2)cc1 | – | inconclusive: 39.8 µM [inhibitor, partial curve]
COc1cccc(-c2nc(SCc3cc(=O)c4cc(C)cc(C)c4[nH]3)n[nH]2)c1 | – | inconclusive: 44.7 µM [inhibitor, partial curve, poor fit]
S=C(Nc1ccc(Br)cc1)NC1CCCCC1 | – | inconclusive: 50.1 µM [inhibitor, partial curve, poor fit]
CCCCNC(=O)C1(C)CCC(=O)N1CCOc1ccccc1 (stereo not drawn) | inactive: -0.356% | –
Cc1ccc(C(=O)N2CCC3(CC2)Oc2ccc(F)cc2C(=O)C32CC(c3cccnc3)=NO2)s1 (stereo not drawn) | – | inconclusive: 44.7 µM [inhibitor, partial curve, poor fit]
COc1cccc(Oc2c(C)oc3cc(OCc4ccc(F)cc4)ccc3c2=O)c1 | inactive: 41.1% | –
N#Cc1nc(-c2ccco2)oc1N1CCN(C(=O)CCCN2C(=O)NC3(CCCC3)C2=O)CC1 | inactive: -28.3% | –
FC(F)(F)c1ccccc1-c1nccc(NCCN2CCOCC2)n1 | – | inconclusive: 50.1 µM [inhibitor, partial curve, poor fit]
COc1ccc(C(=O)C(C(=O)Nc2c(C)cccc2C)N(C(=O)Cc2ccc([N+](=O)[O-])cc2)c2ccccc2)cc1 (stereo not drawn) | – | inconclusive: 44.7 µM [inhibitor, partial curve, poor fit]
C=CCN1CCN(C(CCC)c2nnnn2Cc2ccco2)CC1 (stereo not drawn) | – | inconclusive: 31.6 µM [inhibitor, partial curve]
CN(C)c1ccc(/C=N\NC(=S)SCN2C(=O)C3CCC(C)(C2=O)C3(C)C)cc1 (stereo not drawn) | – | inconclusive: 39.8 µM [inhibitor, partial curve, poor fit]
COc1cc(/C=C/c2ccc3cccc(OC(C)=O)c3n2)cc(OC)c1OC(C)=O | – | inconclusive: 25.1 µM [inhibitor, partial curve, poor fit]
CCCn1c(CCc2ccccc2)n[nH]c1=S | – | inconclusive: 44.7 µM [inhibitor, partial curve, poor fit]
Cc1c(C(=O)C(=O)N(Cc2ccccc2)C(C)C)c2ccccc2n1C | – | inconclusive: 0.355 µM [inhibitor, full curve, poor fit]
OC(COc1ccc(Br)cc1)CN1CCCN(c2ccc(C(F)(F)F)cn2)CC1 (stereo not drawn) | – | inconclusive: 7.08 µM [inhibitor, full curve, poor fit]
CCOC(=O)c1c(N)sc2c(O)c(Br)ccc12 | – | inconclusive: 56.2 µM [inhibitor, partial curve, poor fit]
COc1ccc(Cl)cc1NS(=O)(=O)c1cc(Br)cc2c1N(C(=O)C1CC1)CC2 | inactive: 0% | –
c1ccc(CCc2nnc3sc(-c4ccc5ccccc5n4)nn23)cc1 | – | inconclusive: 39.8 µM [inhibitor, partial curve, poor fit]
Cc1cccc(OCc2ccc(C(=O)Nc3ccc(F)cc3)cc2)c1 | – | inconclusive: 2.24 µM [inhibitor, full curve, poor fit]

SMILES | activity change, negative = inhibition | Potency
C[C@H]1CN([C@@H](C)CO)C(=O)CCCn2nncc2CO[C@@H]1CN(C)C(=O)Nc1ccccc1F | – | inconclusive: 158 µM [inhibitor, single point]
COCCN(C/C=C/c1ccccc1)C/C=C/c1ccccc1 | – | inconclusive: 0.355 µM [inhibitor, full curve, poor fit]
c1ccc(C2=NOC3(CCN(Cc4cccc5ccccc45)CC3)C2)cc1 | – | inconclusive: 79.4 µM [inhibitor, partial curve, poor fit]
CCCCc1c(-c2ccccc2OC)ncn1Cc1cccc(OC)c1 | inactive: 0.329% | –
CCOC(=O)CNC(=O)CSc1nnc(-c2ccccc2)n1Cc1ccco1 | inactive: -17.2% | –
CC(=O)C(=Nc1ccccc1Cl)NNc1ccc(Cl)cc1 | – | inconclusive: 44.7 µM [inhibitor, partial curve, poor fit]
CC(C)CC1Nc2ncnc(N3CCOCC3)c2N(Cc2ccccc2)C1=O (stereo not drawn) | – | inconclusive: 28.2 µM [inhibitor, partial curve] and inconclusive: 7.94 µM [inhibitor, full curve]
CCCc1cc(=O)n2nc(N3CCC(C(=O)N4CCN(c5ccc(OC)cc5)CC4)CC3)sc2n1 | – | inconclusive: 22.4 µM [inhibitor, partial curve, poor fit]
CCNC(=S)N/N=C/c1cc(C)n(-c2ccc(Cl)cc2)c1C | – | inconclusive: 28.2 µM [inhibitor, partial curve, poor fit]
COc1ccc(CNC(=O)N2CCCCC2c2nc(-c3cnccn3)n[nH]2)cc1 (stereo not drawn) | inactive: 12% | –
CC12CC3CC(C)(C1)CC(NCc1ccc(C(=O)O)cc1)(C3)C2 | – | inconclusive: 35.5 µM [inhibitor, partial curve, poor fit]
S=c1[nH]ncn1/N=C/c1ccco1 | – | inconclusive: 28.2 µM [inhibitor, partial curve, poor fit]
Cc1ccc(C=Nc2ccc(N=Cc3ccc(C)s3)cc2)s1 | – | inconclusive: 63.1 µM [inhibitor, partial curve, poor fit]
CCCCCCCOc1ccc(C(=O)Oc2ccc(C(C)=O)cc2)cc1 | inactive: -38.8% | –
CCC(C)n1c(=N)c(C(=O)NCc2ccccc2)cc2c(=O)n3cc(C)ccc3nc21 (stereo not drawn) | – | inconclusive: 12.6 µM [inhibitor, partial curve, poor fit]
COc1ccc(C(c2nnnn2-c2c(C)cccc2C)N2CCN(C/C=C/c3ccccc3)CC2)cc1 (stereo not drawn) | – | inconclusive: 50.1 µM [inhibitor, single point]
CC1CCCCN1C(=O)CSc1nnc(-c2ccccc2F)o1 (stereo not drawn) | inactive: 11.2% | –
Cc1nn(CCCC(=O)Nc2cc(Oc3ccccc3)cc([N+](=O)[O-])c2)c(C)c1[N+](=O)[O-] | inactive: 7.92% | –
O=C(O)COc1ccccc1C(Nc1ccccn1)c1cc(Cl)c2cccnc2c1O (stereo not drawn) | – | inconclusive: 79.4 µM [inhibitor, partial curve, poor fit]
CN1C(=O)Cc2cc(S(=O)(=O)Nc3ccc(Cl)cc3)ccc21 | – | inconclusive: 50.1 µM [inhibitor, partial curve, poor fit]
CCCCNc1nc(-c2cccc(OC)c2O)nc2ccccc12 | – | inconclusive: 2.82 µM [inhibitor, full curve, poor fit]
